Values from PubChem BioAssay AID1259331 (Drosophila RNAi Screening Center, 2017)
The deposit covers about 3,100 reagents; below is a part drawn at random. 126 of all reagents (4.1%) count as active. 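Calls are per reagent; zinc was so toxic that few knock-downs lowered ATP further, so most hits raise ATP.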 The raw values are shown without normalisation. Names joined by + are all predicted targets of the reagent. No sequences are given here. Not given: the amount of reagent.

Screen: 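Genes whose knock-down changes cell survival under toxic zinc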 (primary screen)
Cell system: Drosophila S2R+ cells
Reagents: long dsRNA against Drosophila genes
Time to read-out: 5 days (4 days knock-down, then 1 day zinc)
Challenge: zinc chloride at 15 mM final level for 1 day
Detection: 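Total cellular ATP measured by luciferase luminescence as a viability proxy, turned into Z scores from three plate copies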
Scale: mean Z score: higher = more ATP than other wells, better survival under zinc; ATP luminescence: higher = more ATP, more viable cells
Active means: 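a reagent is called a hit when its Z score is above 1.5 or below -1.5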
Calls: active = hit, ATP up or down; inactive = not a hit

Ir84a [DRSC12510] — mean Z score = -0.365; ATP luminescence, replicate 1 = 67758; ATP luminescence, replicate 2 = 56499; Outcome = inactive
Ir84a [DRSC27487] — mean Z score = -0.244; ATP luminescence, replicate 1 = 63290; ATP luminescence, replicate 2 = 58557; Outcome = inactive
Ca-alpha1T [DRSC17842] — mean Z score = 0.359; ATP luminescence, replicate 1 = 69854; ATP luminescence, replicate 2 = 74181; Outcome = inactive
Ca-alpha1T [DRSC18357] — mean Z score = -0.598; ATP luminescence, replicate 1 = 32149; ATP luminescence, replicate 2 = 34244; Outcome = inactive
Ca-alpha1T [DRSC21430] — mean Z score = -0.734; ATP luminescence, replicate 1 = 47069; ATP luminescence, replicate 2 = 34690; Outcome = inactive
Syx5 [DRSC03432] — mean Z score = -0.567; ATP luminescence, replicate 1 = 49366; ATP luminescence, replicate 2 = 47007; Outcome = inactive
mew [DRSC18971] — mean Z score = -0.263; ATP luminescence, replicate 1 = 67446; ATP luminescence, replicate 2 = 68229; Outcome = inactive
mew [DRSC20352] — mean Z score = 0.876; ATP luminescence, replicate 1 = 79920; ATP luminescence, replicate 2 = 81247; Outcome = inactive
TM9SF3 [DRSC09747] — mean Z score = -0.0814; ATP luminescence, replicate 1 = 76685; ATP luminescence, replicate 2 = 57322; Outcome = inactive
CG15279 [DRSC01935] — mean Z score = 0.0331; ATP luminescence, replicate 1 = 53910; ATP luminescence, replicate 2 = 59637; Outcome = inactive
CG15279 [DRSC27347] — mean Z score = -0.661; ATP luminescence, replicate 1 = 53533; ATP luminescence, replicate 2 = 52549; Outcome = inactive
Nha1 [DRSC02109] — mean Z score = 0.478; ATP luminescence, replicate 1 = 63256; ATP luminescence, replicate 2 = 62665; Outcome = inactive
Nha1 [DRSC39661] — mean Z score = -0.158; ATP luminescence, replicate 1 = 57854; ATP luminescence, replicate 2 = 55865; Outcome = inactive
CG15553 [DRSC15091] — mean Z score = 0.833; ATP luminescence, replicate 1 = 79799; ATP luminescence, replicate 2 = 79926; Outcome = inactive
CG15553 [DRSC39697] — mean Z score = 0.397; ATP luminescence, replicate 1 = 68486; ATP luminescence, replicate 2 = 65262; Outcome = inactive
stnA + stnB [DRSC20969] — mean Z score = 0.033; ATP luminescence, replicate 1 = 54407; ATP luminescence, replicate 2 = 42954; Outcome = inactive
stnA + stnB [DRSC21112] — mean Z score = 0.41; ATP luminescence, replicate 1 = 36426; ATP luminescence, replicate 2 = 60306; Outcome = inactive
stnA + stnB [DRSC21113] — mean Z score = -0.363; ATP luminescence, replicate 1 = 36617; ATP luminescence, replicate 2 = 45525; Outcome = inactive
CG5646 [DRSC15853] — mean Z score = -0.3; ATP luminescence, replicate 1 = 42262; ATP luminescence, replicate 2 = 42336; Outcome = inactive
CG5646 [DRSC29759] — mean Z score = 0.306; ATP luminescence, replicate 1 = 68364; ATP luminescence, replicate 2 = 63822; Outcome = inactive
LpR2 [DRSC13726] — mean Z score = -0.146; ATP luminescence, replicate 1 = 43194; ATP luminescence, replicate 2 = 46331; Outcome = inactive
LpR2 [DRSC13728] — mean Z score = -0.0591; ATP luminescence, replicate 1 = 75964; ATP luminescence, replicate 2 = 63046; Outcome = inactive
LpR2 [DRSC25588] — mean Z score = 0.196; ATP luminescence, replicate 1 = 64696; ATP luminescence, replicate 2 = 53327; Outcome = inactive
CG14743 [DRSC06479] — mean Z score = -0.518; ATP luminescence, replicate 1 = 67149; ATP luminescence, replicate 2 = 61661; Outcome = inactive
CG14743 [DRSC39688] — mean Z score = 0.659; ATP luminescence, replicate 1 = 72791; ATP luminescence, replicate 2 = 66394; Outcome = inactive

Reformatted: entries from further up.
{"Gene": "Ca-alpha1T", "dsRNA": "DRSC17842", "mean Z score": 0.359, "ATP luminescence, replicate 1": 69854, "ATP luminescence, replicate 2": 74181, "Outcome": "inactive"}
{"Gene": "Ca-alpha1T", "dsRNA": "DRSC18357", "mean Z score": -0.598, "ATP luminescence, replicate 1": 32149, "ATP luminescence, replicate 2": 34244, "Outcome": "inactive"}
{"Gene": "Ca-alpha1T", "dsRNA": "DRSC21430", "mean Z score": -0.734, "ATP luminescence, replicate 1": 47069, "ATP luminescence, replicate 2": 34690, "Outcome": "inactive"}
{"Gene": "Syx5", "dsRNA": "DRSC03432", "mean Z score": -0.567, "ATP luminescence, replicate 1": 49366, "ATP luminescence, replicate 2": 47007, "Outcome": "inactive"}
